Binding data for one substance are collected here from paper PMC11739459.

The chains behind the UniProt entries cited, without tags or fusion partners. Residues count along the entry.
UniProt P16070, residues 21-742: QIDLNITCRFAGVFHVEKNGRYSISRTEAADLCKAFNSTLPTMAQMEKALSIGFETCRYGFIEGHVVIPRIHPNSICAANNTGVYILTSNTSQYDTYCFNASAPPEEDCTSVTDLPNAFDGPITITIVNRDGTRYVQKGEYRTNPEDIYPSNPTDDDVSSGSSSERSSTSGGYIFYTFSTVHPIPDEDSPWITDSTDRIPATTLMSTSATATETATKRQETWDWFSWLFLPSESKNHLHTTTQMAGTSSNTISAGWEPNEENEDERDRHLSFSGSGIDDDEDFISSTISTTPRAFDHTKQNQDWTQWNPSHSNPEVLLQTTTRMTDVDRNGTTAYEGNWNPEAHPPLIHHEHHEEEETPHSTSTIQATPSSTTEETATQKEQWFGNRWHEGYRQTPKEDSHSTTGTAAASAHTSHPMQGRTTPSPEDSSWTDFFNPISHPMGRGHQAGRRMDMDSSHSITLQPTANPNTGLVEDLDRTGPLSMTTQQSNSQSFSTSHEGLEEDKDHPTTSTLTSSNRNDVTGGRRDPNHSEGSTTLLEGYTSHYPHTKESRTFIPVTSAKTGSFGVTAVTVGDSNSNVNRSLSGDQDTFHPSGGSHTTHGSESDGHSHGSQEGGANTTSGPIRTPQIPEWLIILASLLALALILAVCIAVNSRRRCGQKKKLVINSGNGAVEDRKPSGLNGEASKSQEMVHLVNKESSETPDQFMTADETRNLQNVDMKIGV
UniProt P13611, residues 21-3396: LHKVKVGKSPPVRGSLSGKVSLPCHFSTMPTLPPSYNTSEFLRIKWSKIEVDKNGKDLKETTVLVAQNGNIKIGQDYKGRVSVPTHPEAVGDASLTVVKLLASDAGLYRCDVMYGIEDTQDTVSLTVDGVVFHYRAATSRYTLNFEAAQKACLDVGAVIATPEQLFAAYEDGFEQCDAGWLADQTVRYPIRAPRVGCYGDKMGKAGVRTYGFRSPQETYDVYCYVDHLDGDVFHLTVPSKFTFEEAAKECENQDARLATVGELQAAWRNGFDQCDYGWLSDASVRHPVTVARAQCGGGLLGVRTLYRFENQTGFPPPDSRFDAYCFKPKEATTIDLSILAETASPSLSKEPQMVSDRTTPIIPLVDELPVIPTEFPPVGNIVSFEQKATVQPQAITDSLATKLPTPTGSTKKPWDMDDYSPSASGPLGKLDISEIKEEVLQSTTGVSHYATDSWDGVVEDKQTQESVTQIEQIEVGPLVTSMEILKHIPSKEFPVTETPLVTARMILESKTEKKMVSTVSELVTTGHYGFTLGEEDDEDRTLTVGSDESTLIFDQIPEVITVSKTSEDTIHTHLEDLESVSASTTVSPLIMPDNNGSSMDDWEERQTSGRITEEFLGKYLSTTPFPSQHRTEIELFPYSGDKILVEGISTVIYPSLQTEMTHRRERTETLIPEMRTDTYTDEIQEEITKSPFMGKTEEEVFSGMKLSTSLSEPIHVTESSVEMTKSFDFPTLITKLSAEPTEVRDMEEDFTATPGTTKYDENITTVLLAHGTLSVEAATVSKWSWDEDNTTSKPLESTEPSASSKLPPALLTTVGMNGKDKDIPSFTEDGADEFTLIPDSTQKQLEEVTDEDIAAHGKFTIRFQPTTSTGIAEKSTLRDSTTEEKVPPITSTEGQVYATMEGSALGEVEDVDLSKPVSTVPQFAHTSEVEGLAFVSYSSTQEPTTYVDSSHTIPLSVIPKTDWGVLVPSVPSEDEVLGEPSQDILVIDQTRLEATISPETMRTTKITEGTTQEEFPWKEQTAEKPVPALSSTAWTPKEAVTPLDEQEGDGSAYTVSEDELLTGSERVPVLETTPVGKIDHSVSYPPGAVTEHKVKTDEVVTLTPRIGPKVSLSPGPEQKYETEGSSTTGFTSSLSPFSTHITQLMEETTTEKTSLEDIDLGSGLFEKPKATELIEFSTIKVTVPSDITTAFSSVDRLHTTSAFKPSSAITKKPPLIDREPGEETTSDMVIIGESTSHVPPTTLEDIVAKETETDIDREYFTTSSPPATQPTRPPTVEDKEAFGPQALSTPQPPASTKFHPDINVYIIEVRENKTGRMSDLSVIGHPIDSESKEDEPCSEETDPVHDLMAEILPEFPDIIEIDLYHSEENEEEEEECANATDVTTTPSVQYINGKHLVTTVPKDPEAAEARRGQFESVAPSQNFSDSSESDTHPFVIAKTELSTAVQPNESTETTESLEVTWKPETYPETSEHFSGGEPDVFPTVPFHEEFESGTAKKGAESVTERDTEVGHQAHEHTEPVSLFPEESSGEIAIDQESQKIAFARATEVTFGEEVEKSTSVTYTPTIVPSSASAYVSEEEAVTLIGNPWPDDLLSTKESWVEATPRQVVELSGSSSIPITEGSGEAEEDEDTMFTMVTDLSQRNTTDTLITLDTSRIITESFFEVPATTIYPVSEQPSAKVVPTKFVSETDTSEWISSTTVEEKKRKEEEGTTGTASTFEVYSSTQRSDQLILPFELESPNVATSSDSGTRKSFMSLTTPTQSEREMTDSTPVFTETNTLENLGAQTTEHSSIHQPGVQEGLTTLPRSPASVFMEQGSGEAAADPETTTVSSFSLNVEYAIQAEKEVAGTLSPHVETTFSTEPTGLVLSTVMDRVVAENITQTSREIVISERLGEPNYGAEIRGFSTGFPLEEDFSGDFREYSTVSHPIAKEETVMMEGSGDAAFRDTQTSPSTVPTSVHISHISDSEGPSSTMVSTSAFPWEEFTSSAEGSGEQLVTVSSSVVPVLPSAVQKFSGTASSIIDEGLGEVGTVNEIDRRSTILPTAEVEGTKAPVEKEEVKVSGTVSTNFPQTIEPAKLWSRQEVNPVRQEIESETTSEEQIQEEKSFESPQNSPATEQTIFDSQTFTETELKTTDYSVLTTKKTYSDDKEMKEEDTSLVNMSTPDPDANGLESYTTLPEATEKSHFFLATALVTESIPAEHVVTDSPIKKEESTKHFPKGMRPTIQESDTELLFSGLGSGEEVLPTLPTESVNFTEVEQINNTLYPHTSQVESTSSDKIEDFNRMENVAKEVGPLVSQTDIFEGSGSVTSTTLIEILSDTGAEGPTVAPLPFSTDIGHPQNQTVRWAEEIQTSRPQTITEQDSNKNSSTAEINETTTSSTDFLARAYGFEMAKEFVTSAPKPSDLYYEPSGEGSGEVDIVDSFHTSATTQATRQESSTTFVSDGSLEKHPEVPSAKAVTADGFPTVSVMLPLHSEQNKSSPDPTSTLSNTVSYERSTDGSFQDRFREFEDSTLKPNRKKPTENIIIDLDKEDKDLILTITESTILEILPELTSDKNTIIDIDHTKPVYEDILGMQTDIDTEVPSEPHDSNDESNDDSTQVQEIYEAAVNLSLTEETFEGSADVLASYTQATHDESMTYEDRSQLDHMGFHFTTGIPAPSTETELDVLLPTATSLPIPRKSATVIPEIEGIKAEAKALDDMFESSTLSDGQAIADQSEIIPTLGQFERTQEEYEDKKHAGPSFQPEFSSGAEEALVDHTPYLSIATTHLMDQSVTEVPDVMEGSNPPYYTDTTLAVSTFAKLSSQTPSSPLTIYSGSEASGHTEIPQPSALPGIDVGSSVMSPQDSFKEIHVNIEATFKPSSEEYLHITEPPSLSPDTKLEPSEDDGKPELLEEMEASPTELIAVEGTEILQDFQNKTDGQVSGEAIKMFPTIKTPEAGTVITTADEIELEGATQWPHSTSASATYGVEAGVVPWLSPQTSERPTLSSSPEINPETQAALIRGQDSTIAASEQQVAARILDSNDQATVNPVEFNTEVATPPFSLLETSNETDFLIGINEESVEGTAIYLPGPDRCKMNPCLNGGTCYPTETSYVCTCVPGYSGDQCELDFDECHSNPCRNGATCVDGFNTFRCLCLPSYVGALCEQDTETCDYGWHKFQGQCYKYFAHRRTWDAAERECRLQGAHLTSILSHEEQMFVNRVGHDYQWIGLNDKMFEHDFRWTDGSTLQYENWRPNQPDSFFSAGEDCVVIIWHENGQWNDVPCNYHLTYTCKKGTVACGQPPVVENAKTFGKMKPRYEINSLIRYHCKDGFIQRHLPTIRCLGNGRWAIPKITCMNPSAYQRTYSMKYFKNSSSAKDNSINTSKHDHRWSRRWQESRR

Results are given in words; binding and its absence hold for the method and conditions named. Binding seen in cells or lysates may run through a third protein. Some entries that bind do so weakly or less than the wild type.

The target in assay [1] is CD44 (human (endogenous in THP-1-derived macrophages and human GC cell lines)) (UniProt P16070). In words: co-IP; lysate of GC cells; incubated overnight with control IgG or specific antibodies, Protein A + G agarose beads 2 h at 4°C, washed in PBS, SDS-PAGE.
The target is the same in assay [2]. Briefly: co-IP; lysate of polarized macrophages; incubated overnight with control IgG or specific antibodies, Protein A + G agarose beads 2 h at 4°C, washed in PBS, SDS-PAGE.

As to “versican (VCAN) (from UniProt P13611 21-3396)”, the binding entry in assay [1] and in assay [2] was “binds” each time.
